Laboratory results taken from US8906858B2, “Method for the prophylactic or therapeutic treatment of glucocorticoid-induced osteoporosis” (Fritz-Lipmann-Institut E. V. Leibniz-Institut Fuer …, priority 2010, dated 2014).
For at least one compound, name, drawing or mass did not settle the structure.

What was measured:
[1] = system: primary osteoblasts; test: Primary osteoblast culture: proliferation, apoptosis and osteogenic differentiation with Dex; format: cell-based, mouse; details: for expansion of preconfluent pre-osteoblasts: 1 μM Dex
[2] = system: GILZ, Per-1, KLF15, LIF, IL-11 mRNA expression; test: qRT-PCR mRNA expression in osteoblasts, bone organ cultures and MEFs after Dex; format: cell-based, mouse
[3] = system: Mouse embryonic fibroblasts; test: Functional screening assay, automated fluorescent microscopy of ALP activity and cytokines; format: cell-based; details: 1 μM dexamethasone
[4] = dN^Runx2Cre osteoblasts with diminished NF-KB activity

## C[C@@H]1C[C@H]2[C@@H]3CCC4=CC(=O)C=C[C@]4(C)[C@@]3(F)[C@@H](O)C[C@]2(C)[C@@]1(O)C(=O)CO [Dex, dexamethasone]
[1]; GR^null and GR^dim cultures
  expansion of preconfluent pre-osteoblasts: did not affect
[1]; GR^null osteoblasts
  osteoblastic markers Runx2, Akp1, Col1a1 and Bglap2: no repressive effect
[1]; [4]
  osteoblast apoptosis: normal
  osteoblast differentiation (ALP activity, Col1a1 and Runx2 expression): still efficiently inhibited
[1]; wild type and GR^dim but not GR^null cells
  postconfluential cell numbers: slight reduction
[1]; wild type and GR^dim but not GR^null osteoblasts
  ALP activity and matrix mineralization: inhibited
[1]; wild type and GR^dim cells
  osteoblastic markers Runx2, Akp1, Col1a1 and Bglap2: Efficient down-regulation
[1]; wild type cells
  expansion of preconfluent pre-osteoblasts: completely prevented expansion
[1]; wild type, GR^dim and GR^null cells
  apoptosis (TUNEL): observed in wild type and GR^dim cells but not in GR^null cells
[2]; GR^dim osteoblasts, six hours
  induction of GRE dependent genes GILZ, Per-1, KLF15: lack of induction
[2]; osteoblasts with strongly impaired NF-KB activity
  IL-11 mRNA levels: efficiently reduced
[2]; wild type and GR^dim bones but not GR^Runx2Cre
  IL-11 expression in embryonic bone organ cultures: suppressed
[2]; wild type vs c-Jun knockout MEFs, osteogenic conditions
  IL-11 mRNA levels in MEFs: diminished IL-11 mRNA levels in wild type but not in c-Jun knockout MEFs
[3]
  cytokines IL-6, CXCL10, IL-11, LIF: suppress all cytokines
